Library screen at single concentrations

Chains of the proteins cited; added tags and fusions are not shown. Residues count along the entry.
UniProt P9WPC5, whole entry: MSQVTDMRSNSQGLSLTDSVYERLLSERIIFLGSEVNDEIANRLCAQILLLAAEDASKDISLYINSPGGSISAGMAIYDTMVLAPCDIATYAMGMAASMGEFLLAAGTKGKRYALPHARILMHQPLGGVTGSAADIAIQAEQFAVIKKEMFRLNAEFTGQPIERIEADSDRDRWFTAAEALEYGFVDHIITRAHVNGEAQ
UniProt P9WPC3, whole entry partner: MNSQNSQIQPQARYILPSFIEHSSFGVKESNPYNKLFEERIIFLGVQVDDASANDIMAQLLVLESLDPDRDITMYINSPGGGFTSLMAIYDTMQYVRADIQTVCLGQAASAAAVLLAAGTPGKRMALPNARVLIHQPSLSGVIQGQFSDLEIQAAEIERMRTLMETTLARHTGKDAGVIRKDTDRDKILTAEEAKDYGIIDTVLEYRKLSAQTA
UniProt Q4DA54, 1-478: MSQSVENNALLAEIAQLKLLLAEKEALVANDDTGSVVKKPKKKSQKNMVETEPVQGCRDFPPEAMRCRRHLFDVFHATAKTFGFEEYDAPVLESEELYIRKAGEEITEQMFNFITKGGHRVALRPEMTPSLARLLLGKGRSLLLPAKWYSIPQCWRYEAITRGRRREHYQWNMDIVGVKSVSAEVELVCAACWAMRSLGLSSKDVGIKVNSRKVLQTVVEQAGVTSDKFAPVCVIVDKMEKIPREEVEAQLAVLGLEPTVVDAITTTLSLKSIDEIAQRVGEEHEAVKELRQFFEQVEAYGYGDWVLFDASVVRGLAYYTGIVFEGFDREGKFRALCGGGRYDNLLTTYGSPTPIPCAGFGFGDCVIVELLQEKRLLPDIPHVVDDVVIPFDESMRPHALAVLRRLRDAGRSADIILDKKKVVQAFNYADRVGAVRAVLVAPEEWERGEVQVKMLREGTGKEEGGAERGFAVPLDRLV
UniProt Q8IDJ8, 1-583: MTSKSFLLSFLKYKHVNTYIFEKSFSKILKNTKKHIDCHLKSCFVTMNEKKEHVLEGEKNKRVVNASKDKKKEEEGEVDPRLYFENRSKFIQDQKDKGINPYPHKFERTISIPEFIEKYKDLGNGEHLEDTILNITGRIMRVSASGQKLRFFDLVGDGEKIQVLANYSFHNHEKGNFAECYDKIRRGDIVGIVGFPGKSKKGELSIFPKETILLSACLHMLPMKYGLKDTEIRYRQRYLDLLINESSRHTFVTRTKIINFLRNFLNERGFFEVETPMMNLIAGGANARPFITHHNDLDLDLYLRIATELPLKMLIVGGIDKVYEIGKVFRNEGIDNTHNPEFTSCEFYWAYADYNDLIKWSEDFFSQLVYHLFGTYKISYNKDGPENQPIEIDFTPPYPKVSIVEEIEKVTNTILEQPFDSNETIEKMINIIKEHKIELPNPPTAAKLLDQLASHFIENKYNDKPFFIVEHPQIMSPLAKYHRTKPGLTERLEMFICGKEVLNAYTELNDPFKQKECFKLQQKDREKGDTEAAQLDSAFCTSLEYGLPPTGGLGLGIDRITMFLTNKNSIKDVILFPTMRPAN
UniProt P9WNZ1, whole entry: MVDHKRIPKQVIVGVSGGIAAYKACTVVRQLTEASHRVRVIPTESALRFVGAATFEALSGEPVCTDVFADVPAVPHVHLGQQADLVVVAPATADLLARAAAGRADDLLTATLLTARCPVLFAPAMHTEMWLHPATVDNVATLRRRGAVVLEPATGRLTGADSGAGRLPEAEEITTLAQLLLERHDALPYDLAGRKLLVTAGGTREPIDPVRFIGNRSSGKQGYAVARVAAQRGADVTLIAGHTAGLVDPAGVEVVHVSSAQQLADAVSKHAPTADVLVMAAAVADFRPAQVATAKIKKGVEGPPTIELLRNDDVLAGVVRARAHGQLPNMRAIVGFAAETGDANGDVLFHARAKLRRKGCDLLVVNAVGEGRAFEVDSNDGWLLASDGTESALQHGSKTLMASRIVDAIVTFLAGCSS
UniProt I6X8D2, whole entry: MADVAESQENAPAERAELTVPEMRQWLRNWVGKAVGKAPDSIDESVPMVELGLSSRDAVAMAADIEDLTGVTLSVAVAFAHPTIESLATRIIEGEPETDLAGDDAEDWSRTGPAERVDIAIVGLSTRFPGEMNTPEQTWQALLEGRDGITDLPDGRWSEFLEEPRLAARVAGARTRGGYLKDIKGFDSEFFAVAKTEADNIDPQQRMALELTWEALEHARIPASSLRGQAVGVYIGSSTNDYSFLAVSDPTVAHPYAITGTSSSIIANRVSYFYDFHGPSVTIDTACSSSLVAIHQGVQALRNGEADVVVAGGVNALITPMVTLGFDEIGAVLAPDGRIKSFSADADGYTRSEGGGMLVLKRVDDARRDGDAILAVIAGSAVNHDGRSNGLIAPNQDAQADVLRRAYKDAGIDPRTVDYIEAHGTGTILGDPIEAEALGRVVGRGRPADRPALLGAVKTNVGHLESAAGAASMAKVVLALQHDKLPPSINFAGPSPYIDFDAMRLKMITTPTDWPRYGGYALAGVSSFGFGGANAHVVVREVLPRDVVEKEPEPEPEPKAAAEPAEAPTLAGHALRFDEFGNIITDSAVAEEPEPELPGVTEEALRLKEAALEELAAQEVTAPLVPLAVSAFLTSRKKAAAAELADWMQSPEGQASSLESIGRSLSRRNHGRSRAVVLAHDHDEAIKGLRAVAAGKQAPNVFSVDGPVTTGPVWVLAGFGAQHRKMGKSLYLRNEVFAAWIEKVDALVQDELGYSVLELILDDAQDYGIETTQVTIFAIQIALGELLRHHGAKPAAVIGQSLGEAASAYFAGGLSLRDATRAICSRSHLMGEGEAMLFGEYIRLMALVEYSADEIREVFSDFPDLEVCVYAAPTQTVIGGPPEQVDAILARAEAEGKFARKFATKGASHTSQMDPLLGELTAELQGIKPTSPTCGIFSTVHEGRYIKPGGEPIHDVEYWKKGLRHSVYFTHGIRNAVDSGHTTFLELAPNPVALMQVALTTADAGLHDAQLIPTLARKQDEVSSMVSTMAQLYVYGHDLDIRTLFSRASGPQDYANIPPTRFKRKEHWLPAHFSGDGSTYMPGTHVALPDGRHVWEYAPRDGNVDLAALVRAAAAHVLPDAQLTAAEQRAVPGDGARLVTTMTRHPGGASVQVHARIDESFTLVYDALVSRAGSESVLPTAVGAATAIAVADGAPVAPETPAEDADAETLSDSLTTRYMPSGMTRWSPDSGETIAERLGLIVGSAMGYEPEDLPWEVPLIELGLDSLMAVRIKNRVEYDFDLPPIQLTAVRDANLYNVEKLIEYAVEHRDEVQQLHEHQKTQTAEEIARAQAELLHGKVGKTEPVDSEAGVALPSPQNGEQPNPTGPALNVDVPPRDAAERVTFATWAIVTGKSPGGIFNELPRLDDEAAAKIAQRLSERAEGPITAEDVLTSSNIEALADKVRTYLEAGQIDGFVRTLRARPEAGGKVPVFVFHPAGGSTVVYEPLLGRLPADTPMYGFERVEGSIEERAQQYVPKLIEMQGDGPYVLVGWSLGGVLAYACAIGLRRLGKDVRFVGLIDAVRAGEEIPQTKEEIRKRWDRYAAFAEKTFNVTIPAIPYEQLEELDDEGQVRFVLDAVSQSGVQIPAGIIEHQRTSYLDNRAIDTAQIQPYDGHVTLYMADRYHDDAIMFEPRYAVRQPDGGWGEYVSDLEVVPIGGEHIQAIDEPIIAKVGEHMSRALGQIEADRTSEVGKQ

A: 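Protease assay of ClpP1P2, read by the AMC dye that it sets free. Target: ClpP1P2, Mycobacterium tuberculosis (UniProt P9WPC5 and UniProt P9WPC3). Tested at 50 µM. Higher reads as stronger inhibition, judged from the few compounds that gave an IC50. Most other retested compounds had strongly negative values. Of about 69,000 compounds tested this way, about 10 (0.015%) reached 50% or more in at least one test.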
B: 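Histidine-tRNA ligase, Trypanosoma cruzi CL Brener (UniProt Q4DA54). Enzyme assay of histidyl-tRNA synthetase; the read-out is not stated. Tested at 30 µM. Direction is inferred from retests: higher values go with stronger inhibition. About 69,000 compounds were tested under these conditions; 0.045% (about 31) showed 50% or more at least once.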
C: 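Lysine-tRNA ligase, Plasmodium falciparum 3D7 (UniProt Q8IDJ8). Enzyme assay of the cytosolic lysyl-tRNA synthetase in 384-well plates, read by luminescence. Compounds at 30 µM. Higher reads as stronger inhibition, judged from the few compounds that gave an IC50. Size under these conditions: about 69,000 compounds, about 49 of them at 50% or above in at least one test.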
D: 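Enzyme assay of CoaBC with a phosphate dye (Biomol Green) read at 650 nm. Target: Coenzyme A biosynthesis protein CoaBC, Mycobacterium tuberculosis (UniProt P9WNZ1). Tested at 30 µM. Higher reads as stronger inhibition, judged from the few compounds that gave an IC50. Most strong results did not repeat in a second test. About 67,000 compounds were tested under these conditions; 0.06% (about 40) showed 50% or more at least once.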
E: 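Cell assay of Leishmania donovani living inside macrophages; the read-out is not stated. Concentration: 30 µM. Direction is inferred from retests: higher values go with stronger inhibition. Size under these conditions: about 69,000 compounds, about 1,000 of them at 50% or above in at least one test.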
F: 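Polyketide synthase Pks13, Mycobacterium tuberculosis (UniProt I6X8D2). Enzyme assay of the thioesterase domain of polyketide synthase 13; the read-out is not stated. Tested at 30 µM. Higher reads as stronger inhibition (inferred from which compounds were picked for retests). Size under these conditions: about 67,000 compounds, about 300 of them at 50% or above in at least one test.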

The filed quantity is “Percent Effect” (%).
The record does not define 0% and 100%; most values in the screen are far below 50% and negative numbers occur (in some assays of this library far below -100).
This is an unselected part of the compounds tested.

{"compound": "Cc1nc(C(Cc2ccsc2)NC(=O)CCN2CCOCC2)sc1C", "stereo": "configuration not stated", "A": -20.37, "B": 3.788, "C": 4.09, "D": -4.686, "E": -16.84, "F": 7.42}
{"compound": "CCn1ncc(-c2cc(C(F)F)nc3sc(C(N)=O)c(N)c23)c1C", "A": -26.77, "B": -2.232, "C": 3.926, "D": -6.378, "E": 22.79, "F": 20.02}
{"compound": "O=C(NC1CC(=O)N(C2CC2)C1)c1ccc(Cl)s1", "stereo": "configuration not stated", "A": -5.34, "B": 6.667, "C": 3.459, "D": -3.782, "E": 30.61, "F": 11.33}
{"compound": "CC(C)CN1CCc2[nH]cnc2C12CCN(C(=O)c1cncn1C)CC2", "A": 11.26, "B": 11.49, "C": 8.182, "D": -2.337, "E": 17.22}
{"compound": "COc1cc(CN(C)C(=O)NCCNC(=O)C2CC2)ccc1SC", "A": 12.96, "B": -1.087, "C": 0.275, "D": 9.879, "E": 14.93, "F": -19.02}
{"compound": "O=C(NCC1CC1)c1ccc(NC(=O)c2ccco2)cc1", "A": 23.16, "B": 13.13, "C": 1.361, "D": 6.061, "E": 18.95, "F": 9.606}
{"compound": "Cc1ccc(CN2CCOC3(CCCN(c4cccc(F)c4)C3)C2)o1", "stereo": "configuration not stated", "A": -11.25, "B": 18.37, "C": 4.025, "D": 1.112, "F": 15.09}
{"compound": "CS(=O)(=O)c1ccc(-c2ccccc2C(=O)O)cc1", "A": -9.388, "B": 3.409, "C": 3.799, "D": 5.34, "E": 10.27, "F": 7.875}
{"compound": "CN(C(=O)CN1CCOC(Cn2cccn2)C1)c1nccs1", "stereo": "configuration not stated", "A": -2.921, "B": -3.422, "C": -3.291, "D": 1.054, "E": 13.21, "F": -12.13}
{"compound": "CS(=O)(=O)N1CCOCC2(CCN(Cc3ccoc3)CC2)C1.O=C(O)C(F)(F)F", "E": 16.27}
{"compound": "CSCC(C)(O)CNC(=O)c1cc(Cl)ccc1Cl", "stereo": "configuration not stated", "A": -4.058, "B": 5.102, "C": 8.651, "D": 1.373, "E": -0.4342, "F": -6.316}
{"compound": "CC(C)c1cc(C(=O)NC2CCN(CC(N)=O)CC2)nn1C(C)(C)C", "A": -0.174, "B": 9, "C": 0.806, "D": 2.663, "E": 21.02, "F": -17.65}
{"compound": "Cc1cccc(CNC(=O)CC2CCN(S(C)(=O)=O)CC2)n1", "A": -19.67, "B": 4.981, "C": -1.044, "D": -3.883, "E": 13.19, "F": -0.4019}
{"compound": "Cn1cc(C(=O)NCc2cncc3c2CCN(CC2CC2)C3)cn1", "A": 3.42, "B": -3.518, "C": -0.8834, "D": -4.084, "F": -50.37}

For reference, 2 entries once more:

compound,A,B,C,D,E,F
Cc1nc(C(Cc2ccsc2)NC(=O)CCN2CCOCC2)sc1C (configuration not stated),-20.37%,3.788%,4.09%,-4.686%,-16.84%,7.42%
CN(C(=O)CN1CCOC(Cn2cccn2)C1)c1nccs1 (configuration not stated),-2.921%,-3.422%,-3.291%,1.054%,13.21%,-12.13%

The values are deposited in ChEMBL (CHEMBL3988442, “University of Dundee, Small-Polar-MMV Screening Library” (2021)).